According to PubChem BioAssay (NCATS):
Where “and” joins values, the source holds several entries; their conditions need not be identical. Equal entries are not always repeated. This list was built around the results that the source calls inconclusive (neither active nor inactive); the mix of calls is not that of the screen. For some assays here: Where the call is inconclusive, the potency comes from a doubtful curve fit. Calls of active or inactive are those of the source. Unless noted, calls follow the shape of the dose curve; as a rule, active = well fitted curve in the direction sought with a large enough effect; inconclusive = small, poorly fitted or top-dose-only effect, or another doubt; inactive = no such curve, though single readings can be large; an effect the other way counts as inactive or inconclusive.

By UniProt entry, the sequences of proteins in these tests, tags left out. Where a name states a change or a piece, a line headed by the entry shows the natural chain unless it says otherwise.
UniProt P02791: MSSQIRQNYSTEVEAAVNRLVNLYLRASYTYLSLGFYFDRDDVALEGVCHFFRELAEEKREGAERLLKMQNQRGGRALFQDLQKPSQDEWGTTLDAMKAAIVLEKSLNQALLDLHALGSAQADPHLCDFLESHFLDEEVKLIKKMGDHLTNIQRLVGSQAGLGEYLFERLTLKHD
UniProt P46063: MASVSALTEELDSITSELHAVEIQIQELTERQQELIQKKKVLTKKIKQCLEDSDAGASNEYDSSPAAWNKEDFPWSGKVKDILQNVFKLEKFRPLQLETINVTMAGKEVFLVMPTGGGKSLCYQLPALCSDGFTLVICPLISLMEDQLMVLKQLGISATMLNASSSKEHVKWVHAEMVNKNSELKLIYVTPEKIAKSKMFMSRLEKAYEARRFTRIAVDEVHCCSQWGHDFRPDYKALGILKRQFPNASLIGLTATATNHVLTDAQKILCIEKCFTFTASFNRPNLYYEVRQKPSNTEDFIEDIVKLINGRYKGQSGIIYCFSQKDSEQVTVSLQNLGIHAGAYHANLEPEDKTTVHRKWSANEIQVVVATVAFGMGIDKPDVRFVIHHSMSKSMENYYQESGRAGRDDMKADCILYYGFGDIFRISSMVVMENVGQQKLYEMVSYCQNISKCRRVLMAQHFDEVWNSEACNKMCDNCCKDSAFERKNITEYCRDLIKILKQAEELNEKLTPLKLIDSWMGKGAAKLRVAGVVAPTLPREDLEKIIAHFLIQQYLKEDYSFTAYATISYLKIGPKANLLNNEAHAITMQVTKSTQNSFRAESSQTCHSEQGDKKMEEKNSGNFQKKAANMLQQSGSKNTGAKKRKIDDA
UniProt P21728, whole entry, looked up: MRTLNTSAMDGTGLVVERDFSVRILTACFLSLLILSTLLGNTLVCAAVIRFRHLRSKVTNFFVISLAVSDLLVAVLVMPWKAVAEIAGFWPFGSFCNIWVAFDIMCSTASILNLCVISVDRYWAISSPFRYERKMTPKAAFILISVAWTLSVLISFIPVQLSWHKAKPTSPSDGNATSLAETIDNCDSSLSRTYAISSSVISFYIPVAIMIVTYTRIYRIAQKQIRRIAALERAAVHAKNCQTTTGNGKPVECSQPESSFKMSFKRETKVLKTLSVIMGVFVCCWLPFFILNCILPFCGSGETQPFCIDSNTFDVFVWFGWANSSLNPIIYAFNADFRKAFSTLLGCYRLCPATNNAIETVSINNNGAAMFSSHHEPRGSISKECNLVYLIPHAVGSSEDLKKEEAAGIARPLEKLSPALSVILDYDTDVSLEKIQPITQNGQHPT
UniProt P10275: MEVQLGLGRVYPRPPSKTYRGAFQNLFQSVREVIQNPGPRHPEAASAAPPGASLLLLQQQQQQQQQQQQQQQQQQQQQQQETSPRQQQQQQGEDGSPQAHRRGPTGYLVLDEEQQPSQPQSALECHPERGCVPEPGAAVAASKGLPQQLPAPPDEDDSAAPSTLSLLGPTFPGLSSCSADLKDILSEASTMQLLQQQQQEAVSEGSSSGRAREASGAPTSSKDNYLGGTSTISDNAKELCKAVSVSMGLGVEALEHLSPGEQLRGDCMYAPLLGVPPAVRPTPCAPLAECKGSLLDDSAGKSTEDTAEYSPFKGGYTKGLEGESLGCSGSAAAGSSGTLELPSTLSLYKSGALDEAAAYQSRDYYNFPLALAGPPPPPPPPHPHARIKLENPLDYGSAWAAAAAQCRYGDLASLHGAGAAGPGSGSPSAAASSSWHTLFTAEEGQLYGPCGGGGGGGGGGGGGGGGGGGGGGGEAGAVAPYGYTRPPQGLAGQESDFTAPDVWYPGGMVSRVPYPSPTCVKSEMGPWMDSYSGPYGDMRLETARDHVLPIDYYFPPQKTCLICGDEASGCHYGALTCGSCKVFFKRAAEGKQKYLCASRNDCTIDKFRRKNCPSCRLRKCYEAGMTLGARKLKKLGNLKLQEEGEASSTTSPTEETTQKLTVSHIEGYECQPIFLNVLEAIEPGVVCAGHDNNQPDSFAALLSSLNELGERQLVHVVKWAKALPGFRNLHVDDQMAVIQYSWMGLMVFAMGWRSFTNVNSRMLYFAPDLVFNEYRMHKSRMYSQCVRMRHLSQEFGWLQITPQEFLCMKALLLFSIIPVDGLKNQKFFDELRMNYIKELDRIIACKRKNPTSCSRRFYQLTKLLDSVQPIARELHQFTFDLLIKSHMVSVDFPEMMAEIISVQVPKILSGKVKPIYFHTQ
UniProt P51449: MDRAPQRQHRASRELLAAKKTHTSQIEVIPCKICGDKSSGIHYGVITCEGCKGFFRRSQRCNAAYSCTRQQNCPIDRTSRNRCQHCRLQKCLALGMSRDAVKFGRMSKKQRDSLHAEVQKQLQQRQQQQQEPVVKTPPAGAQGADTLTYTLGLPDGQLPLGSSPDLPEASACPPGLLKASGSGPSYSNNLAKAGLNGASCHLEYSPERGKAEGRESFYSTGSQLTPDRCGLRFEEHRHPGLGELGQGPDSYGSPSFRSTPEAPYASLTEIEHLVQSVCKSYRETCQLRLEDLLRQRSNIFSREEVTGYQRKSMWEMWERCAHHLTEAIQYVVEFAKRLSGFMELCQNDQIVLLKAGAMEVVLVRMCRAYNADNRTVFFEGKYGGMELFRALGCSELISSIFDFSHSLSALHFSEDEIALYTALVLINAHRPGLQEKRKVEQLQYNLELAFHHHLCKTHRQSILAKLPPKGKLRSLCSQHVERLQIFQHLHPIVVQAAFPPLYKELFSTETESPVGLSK
UniProt Q8WZA2: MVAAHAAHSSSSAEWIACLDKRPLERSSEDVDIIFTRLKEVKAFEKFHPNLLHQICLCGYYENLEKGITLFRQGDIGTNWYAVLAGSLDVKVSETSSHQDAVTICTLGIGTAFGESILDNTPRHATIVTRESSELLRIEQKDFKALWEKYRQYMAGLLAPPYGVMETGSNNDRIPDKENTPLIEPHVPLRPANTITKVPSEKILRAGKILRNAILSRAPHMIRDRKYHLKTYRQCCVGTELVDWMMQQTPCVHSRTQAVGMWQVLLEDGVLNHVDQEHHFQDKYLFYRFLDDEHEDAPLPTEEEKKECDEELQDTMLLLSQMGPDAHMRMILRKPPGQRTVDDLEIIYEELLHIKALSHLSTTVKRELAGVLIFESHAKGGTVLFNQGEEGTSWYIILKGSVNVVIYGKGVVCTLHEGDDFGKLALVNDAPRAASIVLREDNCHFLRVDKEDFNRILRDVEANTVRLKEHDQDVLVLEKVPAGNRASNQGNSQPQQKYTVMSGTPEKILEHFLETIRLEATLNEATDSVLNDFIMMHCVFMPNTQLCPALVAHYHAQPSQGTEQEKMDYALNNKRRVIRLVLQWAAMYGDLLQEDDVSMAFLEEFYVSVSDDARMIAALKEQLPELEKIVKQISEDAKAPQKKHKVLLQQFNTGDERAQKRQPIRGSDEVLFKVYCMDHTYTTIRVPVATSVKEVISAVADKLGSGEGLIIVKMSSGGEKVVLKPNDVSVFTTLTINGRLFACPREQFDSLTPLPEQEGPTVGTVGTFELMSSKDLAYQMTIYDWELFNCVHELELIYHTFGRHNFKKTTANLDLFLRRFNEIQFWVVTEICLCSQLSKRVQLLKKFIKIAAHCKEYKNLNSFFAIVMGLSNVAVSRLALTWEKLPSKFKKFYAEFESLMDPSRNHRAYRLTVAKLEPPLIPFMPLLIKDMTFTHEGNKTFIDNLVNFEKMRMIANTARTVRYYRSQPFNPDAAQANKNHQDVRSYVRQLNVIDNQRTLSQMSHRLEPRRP

Key:
[1] = Quantitative High-Throughput drug screen in 47 multiple myeloma cell lines against the NCATS MIPE library collection: OPM1_PLB cell viability assay (AID 1918989); also: potency is read from the fitted curve at half-maximal effect; nearly all actives have a fitted effect of over 40% in size
Procedure, shortened: (§1)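 ATP-based CellTiter-Glo luminescence after 48 h drug exposure (37 °C, 5% CO2) of 500 myeloma cells per well. DMSO-only wells set 100% viability, media-only wells 0%; MIPE 4.0 library added by pin tool.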

[2] = Quantitative High-Throughput drug screen in 47 multiple myeloma cell lines against the NCATS MIPE library collection: KMS28BM_JCRB cell viability assay (AID 1919874); also: potency is read from the fitted curve at half-maximal effect; nearly all actives have a fitted effect of over 35% in size
Procedure, shortened: as §1

[3] = NCATS anti-infectives library activity on HEK293 viability as a counter-qHTS vs the C. elegans viability qHTS (AID 1745854); also: potency is read from the fitted curve at half-maximal effect
Procedure, shortened: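 Cytotoxicity counter-screen to a worm viability qHTS: CellTiter-Glo luminescence read 10 min after reagent addition. Compounds (final up to 41.7 uM, a 1:5 dilution series) incubated 24 hr at 37C with 1,500 HEK293 cells per well; digitonin control.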

[4] = target: Ferritin light chain (Equus caballus) (UniProt P02791); assay: qHTS Validation Assay for Identification of Novel General Anesthetics (AID 2323); also: potency is read from the fitted curve at half-maximal effect
Procedure, shortened: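 Normalized fluorescence response, scaled between free 1-AMA and 1-AMA/apoferritin complex, fitted to a four-parameter Hill equation for concentration-effect values. Binding mix: 10 uM horse-spleen apoferritin, 50% saturated 1-AMA in PBS; read 380/535 nm after 10 min.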

[5] = target: ATP-dependent DNA helicase Q1 (Homo sapiens) (UniProt P46063); assay: qHTS Validation Assay for Inhibitors of RecQ-Like Dna Helicase 1 (RECQ1) (AID 2353); also: potency is read from the fitted curve at half-maximal effect
Procedure, shortened: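 RECQ1T1 50 nM; forked duplex (20 bp + 30-nt ss tails) 200 nM, ATP 2 mM final; pH 8.0, 2 mM MgCl2, 2.5 ug/ml poly(dI-dC); 15 min compound preincubation; discontinuous kinetic read over 2 h at RT.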

[6] = Quantitative high throughput screen for delayed death inhibitors of the malarial parasite plastid, 96 hour incubation (AID 488745); also: potency is read from the fitted curve at half-maximal effect; nearly all actives have a fitted effect of over 70% in size
Procedure, shortened: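 Decreased firefly luciferase luminescence indicates inhibited growth of reporter-integrated P. falciparum after two generations (96 h, 37 C, 5% CO2). Infected erythrocytes at 0.1% parasitemia, 2% hematocrit, in Albumax-supplemented RPMI 1640.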

[7] = target: D(1A) dopamine receptor (Homo sapiens) (UniProt P21728); assay: HTS Assay for Allosteric Agonists of the Human D1 Dopamine Receptor: Primary Screen for Potentiators (AID 488982); also: potency is read from the fitted curve at half-maximal effect
Procedure, shortened: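 Calcium flux in an inducible, force-coupled HEK293 Trex D1 line (overnight at 30 C): agonist mode is the 180 s kinetic read after compound; potentiator mode is the following 180 s read after dopamine at EC20.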

[8] = target: Mitogen-activated protein kinase 10 (Mus musculus) (UniProt Q61831); assay: JNK3 AlphaScreen Assay (AID 530; active = well fitted curve in either direction with a large enough effect, not every such curve was filed as active; inconclusive = small, poorly fitted or top-dose-only effect, or another doubt); conditions: JNK3 lysate, c-Jun phosphorylation; activity change, negative = inhibition: at 57.1 µM (top of the series)
Procedure, shortened: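 qHTS titrations with 15 min compound pre-incubation before adding ATP (10 uM final). Read-out: AlphaScreen of Ser73-phosphorylated biotin-GST-cJun using HepG2 lysate JNK3 activated by IL-1β and TNFα.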

[9] = Cell Viability - N2a (AID 540); conditions: N2a mouse neuroblastoma cell viability; at 92.2 µM (top of the series);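 also: plate controls were DMSO alone for no effect and tamoxifen control for full effect; nearly all actives have a fitted effect of over 45% in size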
Procedure, shortened: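 CellTiter-Glo ATP luminescence, read 20 min after reagent at room temperature, reported viability following 40 h compound treatment at 37 °C. N2a mouse neuroblastoma cells seeded 1500/well; Hill equation gave AC50.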

[10] = Cell Viability - NIH 3T3 (AID 541); conditions: NIH 3T3 cell viability, qHTS; at 92.2 µM (top of the series);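 also: cells exposed to compound for 40 hours; plate controls were DMSO alone for no effect and tamoxifen positive control for full effect; nearly all actives have a fitted effect of over 25% in size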
Procedure, shortened: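 Intracellular ATP (CellTiter-Glo luminescence, 20 min at room temperature) measured after 40 hr compound exposure at 37 °C of 1000 NIH 3T3 mouse fibroblasts/well in complete medium; AC50 derived by Hill-equation modelling of qHTS concentration-response curves.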

[11] = MultiTox-Fluor Cytotoxicity Assay - LYMP1-002 - Dead Cells (AID 960);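 also: 0% = DMSO and 100% = tetraoctylammonium bromide; nearly all actives have a fitted effect of over 60% in size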
Procedure, shortened: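 Dead-cell fluorescence (Ex/Em 485/520) after 16 h compound exposure at 37 C of LYMP1-002 lymphoblastoid cells in complete medium; AC50 by Hill equation, with data scaled between DMSO and 15 uM tetraoctylammonium bromide.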

[12] = Cell Viability - LYMP2-005 (AID 967);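 also: plate controls were DMSO only for no effect and 92 µM tetraoctylammonium bromide control for full effect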
Procedure, shortened: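 Luciferase-based ATP quantitation served as the viability measure in human lymphoblastoid LYMP2-005 cells exposed to test compounds for 24 h at 37 C in complete culture medium. Potency (AC50) was obtained by fitting concentration-response curves with the Hill equation.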

[13] = Cell Viability - LYMP2-026 (AID 989); also: % is scaled to controls: 0 for no effect and ±100 for the full control effect; nearly all actives have a fitted effect of over 50% in size
Procedure, shortened: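 Cytotoxicity read as ATP-dependent luminescence (CellTiter-Glo, 30 min room temperature) after 24 h compound treatment at 37 C. LYMP2-026 lymphoblastoid line seeded at 2500 cells/well; AC50 derived by standard Hill equation.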

[14] = qHTS Assay for Identification of Small Molecule Inducers of Hypoxia Response (AID 2120; active = well fitted curve in the direction sought with a large enough effect in the signal ratio, with a control signal flat, not every such curve was filed as active; inconclusive = small, poorly fitted or top-dose-only effect, or a change in a side signal; inactive = no such curve, though single readings can be large or run the other way; the % refers to the signal ratio; also: 0% is about no effect)
Procedure, shortened: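 Reporter induction read as the CCF4 blue/green (460nm/530nm) emission ratio after 2.5 h dye loading at room temperature. ME-180 HRE-beta-lactamase cells received titrated compounds for 17 h at 37 degrees Celsius; AC50 values derived.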

[15] = target: Androgen receptor (Homo sapiens) (UniProt P10275); assay: qHTS assay for small molecule agonists of androgen receptor signaling (AID 588515; active = well fitted curve in the direction sought with a large enough effect in the signal ratio, with a control signal flat; inconclusive = small, poorly fitted or top-dose-only effect, or effect the other way, or a change in a side signal; inactive = no such curve, though single readings can be large or run the other way; the % refers to the signal ratio; also: % is scaled to controls: 0 for no effect and ±100 for the full control effect); conditions: AR-UAS-bla HEK293, beta-lactamase ratio, agonist 16 h; activation: active compounds read high
Procedure, shortened: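 Stimulation of an AR-responsive β-lactamase reporter in GripTite HEK293 cells was measured after 16 h compound exposure at 37 °C, via CCF4 fluorescence after 2 h RT. EC50 from Hill fits, normalized to R1881 at 30 nM.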

[16] = target: Peroxisome proliferator-activated receptor gamma (Homo sapiens) (UniProt P37231); assay: qHTS assay for small molecule agonists of peroxisome proliferator-activated receptor gamma signaling (AID 588536; active = well fitted curve in the direction sought with a large enough effect in the signal ratio, with a control signal flat, not every such curve was filed as active; inconclusive = small, poorly fitted or top-dose-only effect, or effect the other way, or a change in a side signal; inactive = no such curve, though single readings can be large or run the other way; the % refers to the signal ratio;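 also: 0% = DMSO basal wells and 100% = rosiglitazone at 2 µM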); conditions: HEK293 PPARg-UAS-bla, beta-lactamase ratio, 16 h; activation: at 76.7 µM (top of the series), percent of rosiglitazone response, DMSO as zero
Procedure, shortened: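 Using GeneBLAzer HEK293 cells, response was quantified by CCF4 fluorescence and normalized between basal DMSO (0%) and rosiglitazone 2 uM (100%); curves yielded half-maximal stimulation concentration and efficacy.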

[17] = qHTS assay for small molecule agonists of the antioxidant response element (ARE) signaling pathway (AID 651741; active = well fitted activation curve with a large enough effect in the signal ratio; inconclusive = small, poorly fitted or top-dose-only effect, or effect the other way, or a change in a side signal; the % refers to the signal ratio; also: % of control where 0% means no effect); conditions: HepG2 ARE-bla reporter, beta-lactamase FRET ratio, 16 h; activation: at 96 µM (top of the series)
Procedure, shortened: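 Beta-lactamase reporter under ARE control in HepG2 cells, 2,000 per well, was induced by 16 h compound treatment at 37 C. Read-out was fluorescence from LiveBLAzer B/G FRET substrate after 2 h at room temperature.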

[18] = target: Nuclear receptor ROR-gamma (Homo sapiens) (UniProt P51449); assay: qHTS assay for small molecule antagonists of the retinoid-related orphan receptor gamma (ROR-gamma) signaling pathway (AID 651802); also: potency is read from the fitted curve at half-maximal effect; nearly all actives have a fitted effect of over 60% in size
Procedure, shortened: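 Luminescence (One-Glo, 30 min RT) measured 16 h after compound addition and doxycycline induction at 37C. Reporter: RORE-luciferase under TET-inducible ROR-gamma in CHO cells.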

[19] = target: Rap guanine nucleotide exchange factor 4 (Homo sapiens) (UniProt Q8WZA2); assay: Confirmatory qHTS for antagonist of cAMP-regulated guanine nucleotide exchange factor 4 (EPAC2) (AID 1645885); also: potency is read from the fitted curve at half-maximal effect; nearly all actives have a fitted effect of over 25% in size
[20] = qHTS for differential inhibitors of proliferation of Plasmodium falciparum line GB4 (AID 1816); conditions: Potency: Plasmodium falciparum GB4 proliferation inhibition;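 also: potency is read from the fitted curve at half-maximal effect; parasite growth measured after 72 h incubation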

## Nc1nc(NCCNc2ncc(-n3ccnc3)c(-c3ccc(Cl)cc3Cl)n2)ccc1[N+](=O)[O-]
[1]
  Potency: active: 5.26 µM
[2]
  Potency: inconclusive: 0.296 µM [rising, full curve, poor fit]

## CN(C(=O)CN(CCO)CC(=O)N(C)C(C)(C)Cc1ccccc1)C(C)(C)Cc1ccccc1
[3]
  Potency: inconclusive: 31.6 µM [cytotoxic, single point]

## NS(=O)(=O)c1cc2c(cc1Cl)NC(C1CC3C=CC1C3)NS2(=O)=O (stereo not given)
[4]
  Potency: inconclusive: 39.8 µM [inhibitor, partial curve]
[5]
  Potency: active: 11.2 µM
[6]
  Potency: inconclusive: 0.0093 µM [inhibitor, full curve, poor fit]
[7]
  Potency: inconclusive: 6.51 µM [activator, partial curve, poor fit]

## CCCCOCCOCCOCc1cc2c(cc1CCC)OCO2
[8]
  Potency: inconclusive: 15.8 µM [activator, full curve]
[9]
  activity change, negative = cytotoxicity: inactive: -26.9%
[10]
  activity change, negative = cytotoxicity: inconclusive: -63.5%
[11]
  Potency: inactive
[12]
  Potency: inactive
[13]
  Potency: inactive
[14]
  Potency: inactive
[15]
  activation: inactive: 19.3% and inactive: -3.12%
[16]
  activation: inconclusive: 10.8%
[17]
  activation: inconclusive: 9.56%
[18]
  Potency: inconclusive: 23.7 µM [inhibitor, full curve, poor fit]
[19]
  Potency: inconclusive: 57.6 µM [inhibitor, partial curve]

## Cc1ccccc1C(OCCN(C)C)c1ccccc1 (stereo not given)
[20]
  Potency: inconclusive: 1.58 µM [inhibitor, partial curve]
